From the supplement of paper PMC10849652
This is one part of the list.

Chains of the proteins cited; added tags and fusions are not shown. Lines headed by an entry give the natural chain unless they say otherwise; changes in a name come on top.
UniProt P19526, whole entry, looked up: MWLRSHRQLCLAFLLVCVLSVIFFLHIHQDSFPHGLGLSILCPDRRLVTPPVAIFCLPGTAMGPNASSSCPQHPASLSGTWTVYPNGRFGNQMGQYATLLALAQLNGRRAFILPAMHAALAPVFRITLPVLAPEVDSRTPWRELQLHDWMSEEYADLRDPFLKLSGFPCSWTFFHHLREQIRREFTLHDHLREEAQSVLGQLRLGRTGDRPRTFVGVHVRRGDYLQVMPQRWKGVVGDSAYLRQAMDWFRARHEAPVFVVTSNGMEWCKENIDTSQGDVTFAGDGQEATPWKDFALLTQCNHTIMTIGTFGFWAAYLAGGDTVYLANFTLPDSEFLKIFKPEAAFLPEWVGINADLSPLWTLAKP
UniProt Q8TET4: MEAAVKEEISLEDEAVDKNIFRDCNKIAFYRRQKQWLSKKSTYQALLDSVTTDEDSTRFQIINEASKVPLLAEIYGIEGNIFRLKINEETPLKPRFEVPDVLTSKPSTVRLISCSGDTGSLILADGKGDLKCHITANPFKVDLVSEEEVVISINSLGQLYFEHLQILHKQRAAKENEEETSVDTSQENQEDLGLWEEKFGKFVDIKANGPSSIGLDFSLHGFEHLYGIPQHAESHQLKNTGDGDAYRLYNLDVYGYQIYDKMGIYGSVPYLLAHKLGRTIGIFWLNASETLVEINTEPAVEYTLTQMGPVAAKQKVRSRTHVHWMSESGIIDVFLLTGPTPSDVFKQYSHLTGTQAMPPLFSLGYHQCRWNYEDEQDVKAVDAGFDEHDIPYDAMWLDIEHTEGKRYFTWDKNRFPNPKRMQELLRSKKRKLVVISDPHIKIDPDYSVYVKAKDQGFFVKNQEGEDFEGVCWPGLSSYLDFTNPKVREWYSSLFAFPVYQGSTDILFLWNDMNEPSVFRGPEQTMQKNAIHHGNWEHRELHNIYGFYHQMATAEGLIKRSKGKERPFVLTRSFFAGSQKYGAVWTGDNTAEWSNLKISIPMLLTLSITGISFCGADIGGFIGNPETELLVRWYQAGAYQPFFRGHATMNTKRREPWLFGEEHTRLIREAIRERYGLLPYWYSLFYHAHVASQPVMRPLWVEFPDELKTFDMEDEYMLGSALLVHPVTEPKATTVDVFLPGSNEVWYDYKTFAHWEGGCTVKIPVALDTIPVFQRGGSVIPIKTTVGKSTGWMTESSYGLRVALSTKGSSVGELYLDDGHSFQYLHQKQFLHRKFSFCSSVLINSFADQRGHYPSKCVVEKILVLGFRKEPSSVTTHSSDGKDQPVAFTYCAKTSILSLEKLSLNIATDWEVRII
UniProt P98177: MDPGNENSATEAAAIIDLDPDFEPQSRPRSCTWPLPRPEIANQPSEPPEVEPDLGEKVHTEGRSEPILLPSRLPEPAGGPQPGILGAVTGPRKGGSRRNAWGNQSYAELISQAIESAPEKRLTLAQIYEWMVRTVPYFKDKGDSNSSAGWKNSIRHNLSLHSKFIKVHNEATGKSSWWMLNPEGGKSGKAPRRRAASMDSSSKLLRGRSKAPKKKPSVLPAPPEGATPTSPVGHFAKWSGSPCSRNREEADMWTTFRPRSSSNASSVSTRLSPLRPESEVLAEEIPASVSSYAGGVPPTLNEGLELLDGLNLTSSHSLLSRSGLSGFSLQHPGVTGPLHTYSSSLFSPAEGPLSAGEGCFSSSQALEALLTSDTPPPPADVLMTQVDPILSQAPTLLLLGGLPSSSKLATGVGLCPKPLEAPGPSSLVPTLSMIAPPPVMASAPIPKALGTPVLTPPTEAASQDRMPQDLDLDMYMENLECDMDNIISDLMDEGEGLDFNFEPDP
UniProt O94915: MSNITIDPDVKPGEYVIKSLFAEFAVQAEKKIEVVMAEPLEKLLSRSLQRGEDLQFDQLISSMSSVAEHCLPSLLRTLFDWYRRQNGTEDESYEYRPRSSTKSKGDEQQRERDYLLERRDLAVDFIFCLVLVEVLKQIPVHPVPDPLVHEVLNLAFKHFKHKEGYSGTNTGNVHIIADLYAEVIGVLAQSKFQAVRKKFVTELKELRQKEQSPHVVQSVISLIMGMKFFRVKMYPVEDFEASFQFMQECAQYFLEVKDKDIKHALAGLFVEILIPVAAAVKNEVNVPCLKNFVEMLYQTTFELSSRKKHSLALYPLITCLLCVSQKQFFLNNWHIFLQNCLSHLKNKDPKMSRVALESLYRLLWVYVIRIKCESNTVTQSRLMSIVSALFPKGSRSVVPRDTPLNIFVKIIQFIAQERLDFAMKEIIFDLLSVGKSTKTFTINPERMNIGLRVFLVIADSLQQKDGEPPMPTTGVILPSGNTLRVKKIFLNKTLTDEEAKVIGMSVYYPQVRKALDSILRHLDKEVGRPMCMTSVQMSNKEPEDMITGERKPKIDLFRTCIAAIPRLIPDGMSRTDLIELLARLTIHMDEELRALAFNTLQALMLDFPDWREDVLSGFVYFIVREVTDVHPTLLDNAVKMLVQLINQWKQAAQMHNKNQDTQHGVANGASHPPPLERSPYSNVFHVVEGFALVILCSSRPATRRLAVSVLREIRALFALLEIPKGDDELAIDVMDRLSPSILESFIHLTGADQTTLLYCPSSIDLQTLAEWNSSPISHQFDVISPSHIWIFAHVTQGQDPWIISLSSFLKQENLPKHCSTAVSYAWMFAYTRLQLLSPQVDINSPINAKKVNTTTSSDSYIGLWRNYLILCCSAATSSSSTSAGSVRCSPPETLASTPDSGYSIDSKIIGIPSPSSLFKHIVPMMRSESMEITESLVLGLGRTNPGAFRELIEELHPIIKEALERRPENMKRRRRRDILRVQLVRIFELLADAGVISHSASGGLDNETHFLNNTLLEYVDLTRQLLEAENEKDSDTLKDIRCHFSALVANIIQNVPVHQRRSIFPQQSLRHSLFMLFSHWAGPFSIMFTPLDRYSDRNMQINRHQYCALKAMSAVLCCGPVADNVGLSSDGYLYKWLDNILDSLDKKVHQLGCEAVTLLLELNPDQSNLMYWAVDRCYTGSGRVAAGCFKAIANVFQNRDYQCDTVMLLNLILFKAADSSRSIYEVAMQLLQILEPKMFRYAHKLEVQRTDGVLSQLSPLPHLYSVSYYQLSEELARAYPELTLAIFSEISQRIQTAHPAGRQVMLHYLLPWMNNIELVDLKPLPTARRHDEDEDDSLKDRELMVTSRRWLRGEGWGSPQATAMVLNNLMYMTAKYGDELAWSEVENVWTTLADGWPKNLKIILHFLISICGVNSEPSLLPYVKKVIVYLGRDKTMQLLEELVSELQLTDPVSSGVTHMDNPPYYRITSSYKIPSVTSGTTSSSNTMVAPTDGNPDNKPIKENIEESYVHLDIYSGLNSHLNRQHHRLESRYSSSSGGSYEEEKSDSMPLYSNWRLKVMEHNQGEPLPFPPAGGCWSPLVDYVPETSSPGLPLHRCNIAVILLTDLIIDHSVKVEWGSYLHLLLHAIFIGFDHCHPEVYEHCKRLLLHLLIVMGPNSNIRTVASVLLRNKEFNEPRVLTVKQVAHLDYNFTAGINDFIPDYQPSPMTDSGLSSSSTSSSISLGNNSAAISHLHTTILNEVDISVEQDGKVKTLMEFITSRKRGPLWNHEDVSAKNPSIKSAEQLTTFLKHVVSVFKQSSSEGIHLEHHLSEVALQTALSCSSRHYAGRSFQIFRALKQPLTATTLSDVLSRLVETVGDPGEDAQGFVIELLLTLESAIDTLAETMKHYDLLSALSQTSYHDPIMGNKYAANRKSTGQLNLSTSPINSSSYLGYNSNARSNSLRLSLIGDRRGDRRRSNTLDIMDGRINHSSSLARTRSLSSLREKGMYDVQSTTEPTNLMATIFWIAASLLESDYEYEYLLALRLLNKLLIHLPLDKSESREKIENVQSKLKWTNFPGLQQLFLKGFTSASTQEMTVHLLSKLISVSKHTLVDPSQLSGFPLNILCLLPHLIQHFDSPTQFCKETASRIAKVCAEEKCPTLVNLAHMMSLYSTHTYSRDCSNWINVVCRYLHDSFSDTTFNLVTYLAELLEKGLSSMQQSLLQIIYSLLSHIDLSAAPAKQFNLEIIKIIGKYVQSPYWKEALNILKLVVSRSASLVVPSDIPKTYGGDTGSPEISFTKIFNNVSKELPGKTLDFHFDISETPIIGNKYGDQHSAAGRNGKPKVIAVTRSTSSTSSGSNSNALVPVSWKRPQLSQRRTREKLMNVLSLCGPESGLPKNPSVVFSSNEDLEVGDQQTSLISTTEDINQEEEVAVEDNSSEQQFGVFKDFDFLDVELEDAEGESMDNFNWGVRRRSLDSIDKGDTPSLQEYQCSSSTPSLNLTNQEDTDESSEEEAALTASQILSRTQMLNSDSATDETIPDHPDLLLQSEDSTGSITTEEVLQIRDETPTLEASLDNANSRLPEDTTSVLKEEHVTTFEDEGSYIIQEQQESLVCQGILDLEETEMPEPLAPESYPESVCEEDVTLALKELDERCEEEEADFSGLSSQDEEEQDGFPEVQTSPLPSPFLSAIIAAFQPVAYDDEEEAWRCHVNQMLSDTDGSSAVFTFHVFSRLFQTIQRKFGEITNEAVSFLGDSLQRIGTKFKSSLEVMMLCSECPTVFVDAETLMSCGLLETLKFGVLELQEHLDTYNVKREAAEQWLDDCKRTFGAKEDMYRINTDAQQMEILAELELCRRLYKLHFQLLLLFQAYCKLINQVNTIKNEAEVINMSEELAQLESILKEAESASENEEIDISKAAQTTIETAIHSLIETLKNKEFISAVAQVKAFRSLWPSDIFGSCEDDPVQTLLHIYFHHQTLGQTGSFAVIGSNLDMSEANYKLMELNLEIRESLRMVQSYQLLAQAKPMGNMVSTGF
UniProt P27469: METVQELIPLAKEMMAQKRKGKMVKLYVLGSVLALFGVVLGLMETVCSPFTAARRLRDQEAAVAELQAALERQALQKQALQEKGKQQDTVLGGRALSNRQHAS
UniProt O14926: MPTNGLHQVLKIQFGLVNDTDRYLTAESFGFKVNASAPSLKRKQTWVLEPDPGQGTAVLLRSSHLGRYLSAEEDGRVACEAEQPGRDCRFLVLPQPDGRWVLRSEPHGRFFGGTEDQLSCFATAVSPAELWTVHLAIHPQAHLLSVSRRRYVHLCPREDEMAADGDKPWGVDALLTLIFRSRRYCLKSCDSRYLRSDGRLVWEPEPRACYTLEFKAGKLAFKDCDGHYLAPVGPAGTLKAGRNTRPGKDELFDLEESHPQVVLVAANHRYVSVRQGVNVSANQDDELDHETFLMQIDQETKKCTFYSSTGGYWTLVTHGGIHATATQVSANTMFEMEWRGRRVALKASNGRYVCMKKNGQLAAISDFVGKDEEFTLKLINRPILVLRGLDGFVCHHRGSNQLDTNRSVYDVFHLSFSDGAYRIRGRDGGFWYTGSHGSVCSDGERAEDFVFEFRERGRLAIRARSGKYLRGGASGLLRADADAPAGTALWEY
UniProt Q96QD9: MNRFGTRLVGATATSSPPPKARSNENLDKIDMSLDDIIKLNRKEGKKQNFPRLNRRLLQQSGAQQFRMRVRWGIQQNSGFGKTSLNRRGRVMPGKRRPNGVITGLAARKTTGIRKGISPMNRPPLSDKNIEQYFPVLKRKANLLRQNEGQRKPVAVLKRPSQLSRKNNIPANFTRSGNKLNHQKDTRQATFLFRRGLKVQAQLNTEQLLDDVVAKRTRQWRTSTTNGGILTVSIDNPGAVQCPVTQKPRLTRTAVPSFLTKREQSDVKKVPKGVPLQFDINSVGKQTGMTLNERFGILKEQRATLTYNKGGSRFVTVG
UniProt P22083, whole entry, looked up: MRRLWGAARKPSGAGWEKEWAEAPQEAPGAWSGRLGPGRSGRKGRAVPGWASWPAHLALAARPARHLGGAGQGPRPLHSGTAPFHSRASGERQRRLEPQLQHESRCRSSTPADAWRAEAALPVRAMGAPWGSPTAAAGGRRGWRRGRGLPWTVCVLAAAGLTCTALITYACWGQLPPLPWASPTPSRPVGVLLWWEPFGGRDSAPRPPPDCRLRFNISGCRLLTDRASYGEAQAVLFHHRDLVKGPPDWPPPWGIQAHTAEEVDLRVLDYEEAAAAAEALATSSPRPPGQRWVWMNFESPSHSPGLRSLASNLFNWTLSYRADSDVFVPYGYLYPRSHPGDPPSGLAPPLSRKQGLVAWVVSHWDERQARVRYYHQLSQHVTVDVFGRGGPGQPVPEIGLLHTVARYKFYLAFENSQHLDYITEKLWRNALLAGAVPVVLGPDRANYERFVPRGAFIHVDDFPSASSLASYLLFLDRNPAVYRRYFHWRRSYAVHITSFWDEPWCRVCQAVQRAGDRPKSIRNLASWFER
UniProt Q92837: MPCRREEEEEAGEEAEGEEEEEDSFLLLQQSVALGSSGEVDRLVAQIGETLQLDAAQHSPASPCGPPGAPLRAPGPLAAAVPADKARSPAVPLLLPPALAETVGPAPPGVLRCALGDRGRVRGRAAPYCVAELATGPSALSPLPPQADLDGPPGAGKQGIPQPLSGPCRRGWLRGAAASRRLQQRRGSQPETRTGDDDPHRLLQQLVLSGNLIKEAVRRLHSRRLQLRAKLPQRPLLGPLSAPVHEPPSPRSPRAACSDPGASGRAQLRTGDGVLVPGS

How the values were obtained:
Test in all cases: log2 fold change, soluble protein after heating vs DMSO (PISA); higher = thermal stabilisation; K562 lysate, 10 uM; active = over 0.2 and 3.5 SD of the protein, either way, in both replicates (recomputed)
[1] = compound: COc1cc2nc(-c3cc(F)ccc3O)nc(N[C@@H]3CNC[C@H]3C(C)(C)O)c2cc1OC
Method in brief: (§1)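 Following dounce homogenisation of K562 pellets in PBS pH 7.4 with 1 mM MgCl2, crude extract at 1 mg/mL protein was incubated for 30 min with 10 μM compound. Aliquots were then heated for 3 min over 48°C-58°C and pooled, NP-40 was added to 0.5% at 4°C, and soluble protein was recovered as the supernatant at 21,000xg for 90 min. Channel-sum-equalised TMTpro 16plex LC-MS/MS quantified this protein. Each value, from duplicates, is a log-two fold change in thermal stability relative to solvent controls.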

[2] = compound: CS(=O)(=O)CCNCc1ccc(-c2ccc3ncnc(Nc4ccc(OCc5cccc(F)c5)c(Cl)c4)c3c2)o1 [lapatinib]
Method in brief: as §1

[3] = compound: CS(=O)(=O)N1CCN(Cc2cc3nc(-c4cccc5[nH]ncc45)nc(N4CCOCC4)c3s2)CC1 [pictilisib]
Method in brief: as §1

[4] = compound: Cc1ccc(NC(=O)c2ccc(CN3CC[C@H](N(C)C)C3)c(C(F)(F)F)c2)cc1Nc1nccc(-c2cncnc2)n1 [bafetinib]
Method in brief: as §1

[5] = compound: CNC(=O)c1ccc(Nc2ncc(C(F)(F)F)c(NCc3nccnc3N(C)S(C)(=O)=O)n2)cc1 [defactinib]
Method in brief: as §1

[6] = compound: COc1cc(Nc2ncc3c(n2)-c2ccc(Cl)cc2C(c2c(F)cccc2OC)=NC3)ccc1C(=O)O [alisertib]
Method in brief: as §1

[7] = compound: COc1cc2ncnc(Nc3ccc(F)c(Cl)c3)c2cc1OCCCN1CCOCC1 [gefitinib]
Method in brief: as §1

[8] = compound: COC(=O)N[C@@H](C)CNc1nccc(-c2cn(C(C)C)nc2-c2cc(Cl)cc(NS(C)(=O)=O)c2F)n1 [encorafenib]
Method in brief: as §1

[9] = compound: COC(=O)[C@H](CCSC)NC(=O)C1=C(C=C(C=C1)NC[C@H](CS)N)C2=CC=CC=C2
Method in brief: as §1

[10] = compound: C[C@@H](Oc1cc(-c2cnn(C3CCNCC3)c2)cnc1N)c1c(Cl)ccc(F)c1Cl [crizotinib]
Method in brief: as §1

[11] = compound: Cc1cc(Nc2cc(N3CCN(C)CC3)nc(Sc3ccc(NC(=O)C4CC4)cc3)n2)n[nH]1 [tozasertib]
Method in brief: as §1

[12] = compound: Cc1ccc(-n2nc(C(C)(C)C)cc2NC(=O)Nc2ccc(OCCN3CCOCC3)c3ccccc23)cc1 [doramapimod]
Method in brief: as §1

[13] = compound: CN1CC[C@H](c2c(O)cc(O)c3c(=O)cc(-c4ccccc4Cl)oc23)[C@H](O)C1 [alvocidib]
Method in brief: as §1

[14] = compound: C[C@H](C1=CC=C(C=C1)C(=O)NC2=C3C=CNC3=NC=C2)N
Method in brief: as §1

[15] = compound: Cc1cc(Nc2cc(CN3CCOCC3)c3nc(C)c(Cc4ccc(Cl)cc4F)n3n2)n[nH]1 [gandotinib]
Method in brief: as §1

[16] = compound: Cc1cccc(CC(=O)N2CCc3c2ccc(-c2cn(C)c4ncnc(N)c24)c3F)n1
Method in brief: as §1

[17] = compound: CN1CCc2c(c3ccccc3n2Cc2ccc(C(=O)NO)cc2)C1 [Tubastatin A]
Method in brief: as §1

[18] = compound: CNC(=O)C1=CC=CC=C1NC2=NC(=NC=C2Cl)NC3=C(C=C(C=C3)N4CCOCC4)OC
Method in brief: as §1

[19] = compound: CNc1nc(-c2ccc3c(N)n[nH]c3c2)cc(N2C[C@@H](C(=O)NC3CCCCC3)CC[C@H]2C)n1
Method in brief: as §1

[20] = compound: C[C@H](Nc1ncnc2nc[nH]c12)c1cc2cccc(Cl)c2c(=O)n1-c1ccccc1 [duvelisib]
Method in brief: as §1

Measured: log2 fold change

GAPVD1 (UniProt Q14C86)
inactive: [1] 0.071 | [2] 0.03 | [3] -0.138 | [4] 0.014

FUNDC2 (UniProt H7C0K8)
inactive: [5] -0.048 | [6] -0.112 | [1] 0.096 | [7] -0.087 | [2] -0.128 | [3] -0.244 | [4] -0.102

GALNT3 (UniProt Q14435)
inactive: [8] 0.065 | [9] -0.002 | [3] -0.026 | [10] -0.039 | [11] -0.032 | [12] -0.182 | [4] -0.167

FUT1 (UniProt P19526)
inactive: [13] 0.003 | [10] -0.003 | [14] -0.029 | [15] -0.132 | [12] -0.09 | [16] -0.085

GANC (UniProt Q8TET4)
inactive: [17] 0.012 | [18] -0.003 | [19] 0.014 | [8] -0.03 | [9] -0.235 | [1] 0.061 | [2] -0.112 | [10] 0.047 | [20] 0.033 | [11] -0.204 | [12] -0.097

GFI1B (UniProt Q5VTD9)
inactive: [17] -0.279 | [18] 0.081 | [19] 0.021 | [6] 0.287 | [1] 0.018 | [7] -0.001 | [2] 0.033 | [10] 0.017 | [20] 0.006 | [12] 0.009

FTSJ1 isoform 2 (UniProt Q9UET6)
inactive: [13] 0.015 | [5] 0.028 | [8] -0.027 | [9] 0.047 | [1] -0.016 | [2] 0.013 | [14] -0.129 | [15] 0.077 | [11] -0.175 | [16] 0.079

FOXO4 (UniProt P98177)
inactive: [13] -0.001 | [3] -0.07 | [14] 0.061 | [15] -0.105 | [4] 0.054 | [16] -0.07

G3BP2 isoform 2 (UniProt Q9UN86)
inactive: [13] 0.023 | [19] 0.058 | [1] -0.049 | [2] 0.056 | [10] -0.08 | [14] 0.244 | [20] -0.171 | [15] -0.058 | [12] -0.024 | [16] -0.103

FRYL isoform 2 (UniProt O94915)
inactive: [13] -0.038 | [14] -0.204 | [15] 0.143 | [16] 0.193

G0S2 (UniProt P27469)
inactive: [18] -0.154 | [8] -0.085 | [9] -0.233 | [6] 0.031 | [7] 0 | [10] -0.013 | [11] -0.091 | [12] 0.056

FSCN2 isoform 2 (UniProt O14926)
inactive: [5] -0.131 | [8] -0.022 | [9] -0.14 | [10] 0.095 | [11] 0.128 | [12] -0.031

FPGS (UniProt Q05932)
inactive: [17] 0.006 | [19] 0.088 | [8] -0.204 | [9] -0.057 | [6] 0.035 | [7] -0.015 | [20] -0.319 | [11] -0.018

GALNT10 (UniProt Q86SR1)
inactive: [18] 0.003 | [5] -0.04 | [19] 0.027 | [8] 0.077 | [9] 0.01 | [1] 0.071 | [2] 0.078 | [3] 0.043 | [20] 0.067 | [11] -0.122 | [4] -0.086

FYTTD1 (UniProt Q96QD9)
inactive: [18] 0.017 | [5] -0.092 | [19] 0.046 | [8] 0.055 | [9] 0.055 | [3] -0.086 | [10] -0.037 | [20] 0.01 | [11] -0.055 | [12] -0.064 | [4] 0.003

FUT4 (UniProt P22083)
inactive: [13] -0.071 | [19] -0.014 | [8] 0.009 | [9] -0.016 | [6] -0.028 | [7] -0.065 | [10] 0.017 | [14] -0.069 | [20] 0.006 | [15] 0.124 | [11] 0.128 | [12] 0.026 | [16] 0.123

GFOD1 (UniProt Q9NXC2)
inactive: [17] -0.049 | [18] -0.125 | [1] 0.137 | [2] 0.186

FZR1 isoform 2 (UniProt Q9UM11)
inactive: [13] -0.168 | [3] -0.204 | [14] -0.021 | [15] -0.048 | [4] -0.019 | [16] 0.034

FUS (UniProt H3BPE7)
inactive: [19] 0.452 | [20] -0.23

GALNT4 (UniProt Q8N4A0)
inactive: [13] -0.02 | [5] 0.001 | [19] -0.106 | [8] -0.022 | [9] -0.104 | [1] 0.059 | [2] -0.025 | [3] 0.065 | [10] -0.225 | [14] -0.05 | [20] 0.013 | [15] 0.018 | [11] 0.096 | [12] -0.094 | [4] -0.001 | [16] 0.033

GATM (UniProt P50440)
inactive: [8] -0.424 | [9] 0.308 | [11] -0.011

GEN1 (UniProt Q17RS7)
inactive: [17] -0.017 | [5] -0.215 | [19] -0.148 | [8] 0 | [9] 0.163 | [6] 0.202 | [7] 0.141 | [10] 0.182 | [20] 0.175 | [11] 0.053 | [12] 0.139

GARS1 (UniProt H7C443)
inactive: [1] 0.065 | [2] -0.075 | [3] 0.014 | [4] -0.184

FRAT1 (UniProt Q92837)
inactive: [5] -0.204 | [19] 0.287 | [8] 0.042 | [9] -0.128 | [20] -0.006 | [11] -0.115

Quoted from the results shown (2 entries):
GEN1 (UniProt Q17RS7)
inactive: [17] -0.017 | [5] -0.215 | [19] -0.148 | [8] 0 | [9] 0.163 | [6] 0.202 | [7] 0.141 | [10] 0.182 | [20] 0.175 | [11] 0.053 | [12] 0.139

GARS1 (UniProt H7C443)
inactive: [1] 0.065 | [2] -0.075 | [3] 0.014 | [4] -0.184

The list goes on.

FUT8 (UniProt Q9BYC5)
inactive: [17] 0.299 | [18] 0.131 | [8] -0.076 | [9] -0.015 | [1] -0.123 | [2] 0.204 | [3] -0.054 | [11] 0.148 | [4] 0

FZD5 (UniProt Q13467)
inactive: [13] -0.423 | [19] -0.038 | [1] -0.032 | [2] 0.045 | [3] -0.062 | [14] -0.156 | [20] -0.105 | [15] 0.259 | [4] -0.107 | [16] 0.216
